Measured values taken from paper PMC3762332.

Sequences of proteins named here, by UniProt entry; tags and fusion partners are left off. A change or cut given only in a name is not applied to a line headed by its entry.
UniProt Q8NC26: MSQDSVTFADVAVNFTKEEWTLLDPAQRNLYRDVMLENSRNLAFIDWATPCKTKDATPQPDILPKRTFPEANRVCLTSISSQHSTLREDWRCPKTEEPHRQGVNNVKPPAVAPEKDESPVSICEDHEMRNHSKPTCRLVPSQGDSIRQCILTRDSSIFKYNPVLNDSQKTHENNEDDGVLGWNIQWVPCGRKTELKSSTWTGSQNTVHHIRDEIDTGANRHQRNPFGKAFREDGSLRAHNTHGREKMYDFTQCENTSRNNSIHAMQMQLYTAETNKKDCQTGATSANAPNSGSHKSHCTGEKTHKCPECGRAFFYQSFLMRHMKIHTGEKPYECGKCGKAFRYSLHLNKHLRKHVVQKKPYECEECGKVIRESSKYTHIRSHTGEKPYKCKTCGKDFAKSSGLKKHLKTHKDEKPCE
UniProt O00716: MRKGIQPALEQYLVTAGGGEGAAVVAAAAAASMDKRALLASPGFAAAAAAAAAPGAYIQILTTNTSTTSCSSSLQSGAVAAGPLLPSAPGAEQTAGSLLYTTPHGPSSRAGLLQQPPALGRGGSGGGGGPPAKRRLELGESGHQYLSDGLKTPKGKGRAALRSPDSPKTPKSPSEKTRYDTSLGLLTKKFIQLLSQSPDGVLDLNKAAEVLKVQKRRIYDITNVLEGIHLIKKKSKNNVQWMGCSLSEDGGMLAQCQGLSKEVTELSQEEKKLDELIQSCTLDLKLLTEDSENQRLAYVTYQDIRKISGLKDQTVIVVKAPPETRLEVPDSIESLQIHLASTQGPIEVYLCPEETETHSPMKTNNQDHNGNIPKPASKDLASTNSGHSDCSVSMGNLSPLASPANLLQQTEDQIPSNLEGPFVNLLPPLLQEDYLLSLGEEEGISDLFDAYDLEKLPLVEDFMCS
UniProt Q9BWM5: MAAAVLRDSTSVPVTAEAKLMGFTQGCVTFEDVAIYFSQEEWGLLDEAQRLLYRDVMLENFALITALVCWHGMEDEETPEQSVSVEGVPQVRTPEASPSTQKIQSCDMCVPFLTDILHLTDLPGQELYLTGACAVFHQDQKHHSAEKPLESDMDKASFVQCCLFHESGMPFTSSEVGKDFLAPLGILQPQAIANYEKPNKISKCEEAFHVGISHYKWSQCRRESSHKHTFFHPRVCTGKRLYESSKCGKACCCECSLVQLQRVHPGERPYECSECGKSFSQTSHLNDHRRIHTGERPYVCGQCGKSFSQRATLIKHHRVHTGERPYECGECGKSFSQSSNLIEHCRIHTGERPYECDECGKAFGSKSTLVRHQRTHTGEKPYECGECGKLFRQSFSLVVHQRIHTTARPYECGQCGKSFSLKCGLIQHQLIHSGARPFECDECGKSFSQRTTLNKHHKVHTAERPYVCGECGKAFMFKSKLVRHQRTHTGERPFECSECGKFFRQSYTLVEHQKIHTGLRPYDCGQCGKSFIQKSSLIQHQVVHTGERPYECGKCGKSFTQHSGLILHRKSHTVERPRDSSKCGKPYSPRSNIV
UniProt P20719: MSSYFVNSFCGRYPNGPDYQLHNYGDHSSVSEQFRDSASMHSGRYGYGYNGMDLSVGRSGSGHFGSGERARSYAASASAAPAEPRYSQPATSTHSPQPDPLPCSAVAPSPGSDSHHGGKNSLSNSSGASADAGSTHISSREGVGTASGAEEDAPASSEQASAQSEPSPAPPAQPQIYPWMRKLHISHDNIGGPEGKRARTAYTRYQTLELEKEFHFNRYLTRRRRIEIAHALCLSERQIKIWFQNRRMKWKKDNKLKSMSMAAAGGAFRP
UniProt P37231: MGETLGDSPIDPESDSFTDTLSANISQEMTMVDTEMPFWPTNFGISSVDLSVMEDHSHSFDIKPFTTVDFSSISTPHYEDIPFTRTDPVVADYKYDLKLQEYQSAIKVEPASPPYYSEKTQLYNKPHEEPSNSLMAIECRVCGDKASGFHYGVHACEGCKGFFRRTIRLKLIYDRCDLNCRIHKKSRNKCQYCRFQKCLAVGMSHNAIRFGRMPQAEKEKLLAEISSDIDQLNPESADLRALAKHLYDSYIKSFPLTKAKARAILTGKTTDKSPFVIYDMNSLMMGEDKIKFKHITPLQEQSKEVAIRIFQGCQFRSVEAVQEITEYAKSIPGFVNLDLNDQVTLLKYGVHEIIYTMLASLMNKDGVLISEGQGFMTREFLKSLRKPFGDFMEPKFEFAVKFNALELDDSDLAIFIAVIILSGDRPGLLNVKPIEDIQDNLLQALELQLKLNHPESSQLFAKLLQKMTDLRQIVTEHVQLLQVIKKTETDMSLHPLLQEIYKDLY
UniProt P43694: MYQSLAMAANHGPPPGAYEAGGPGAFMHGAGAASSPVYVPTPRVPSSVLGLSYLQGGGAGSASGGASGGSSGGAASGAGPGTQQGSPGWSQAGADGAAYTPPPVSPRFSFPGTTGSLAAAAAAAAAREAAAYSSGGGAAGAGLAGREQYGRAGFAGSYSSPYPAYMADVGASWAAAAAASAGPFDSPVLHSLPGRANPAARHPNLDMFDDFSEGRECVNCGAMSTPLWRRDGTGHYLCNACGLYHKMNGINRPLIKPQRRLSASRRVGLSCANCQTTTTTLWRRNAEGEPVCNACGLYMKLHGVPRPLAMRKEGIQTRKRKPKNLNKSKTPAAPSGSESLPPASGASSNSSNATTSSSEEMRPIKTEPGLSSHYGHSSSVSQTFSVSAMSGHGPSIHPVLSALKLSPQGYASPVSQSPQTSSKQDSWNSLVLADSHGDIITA
UniProt P19793: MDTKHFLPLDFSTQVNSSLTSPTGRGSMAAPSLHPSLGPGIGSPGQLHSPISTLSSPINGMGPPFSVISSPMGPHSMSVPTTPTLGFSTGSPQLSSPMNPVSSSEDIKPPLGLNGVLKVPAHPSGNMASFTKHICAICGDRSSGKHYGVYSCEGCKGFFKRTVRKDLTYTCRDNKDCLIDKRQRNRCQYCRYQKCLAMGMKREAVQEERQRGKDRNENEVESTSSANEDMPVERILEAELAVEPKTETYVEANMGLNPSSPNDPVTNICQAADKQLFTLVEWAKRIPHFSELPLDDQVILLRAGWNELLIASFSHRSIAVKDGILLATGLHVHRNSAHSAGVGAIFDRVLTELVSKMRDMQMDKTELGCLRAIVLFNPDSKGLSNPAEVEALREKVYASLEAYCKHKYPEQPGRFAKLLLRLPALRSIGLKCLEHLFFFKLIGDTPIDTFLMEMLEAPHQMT

Columns and labels:
Assay in all cases: protein microarray
Conditions in all cases: 10-fold cold unmethylated competitor; 5mC at CpG (SssI, both strands); recombinant protein; protein details: GST (N-terminal); label: Cy5
BCL3 (Homo sapiens) = target: T1, BCL3 (Homo sapiens) (UniProt P20749)
T1 sequence (looked up, limits assumed): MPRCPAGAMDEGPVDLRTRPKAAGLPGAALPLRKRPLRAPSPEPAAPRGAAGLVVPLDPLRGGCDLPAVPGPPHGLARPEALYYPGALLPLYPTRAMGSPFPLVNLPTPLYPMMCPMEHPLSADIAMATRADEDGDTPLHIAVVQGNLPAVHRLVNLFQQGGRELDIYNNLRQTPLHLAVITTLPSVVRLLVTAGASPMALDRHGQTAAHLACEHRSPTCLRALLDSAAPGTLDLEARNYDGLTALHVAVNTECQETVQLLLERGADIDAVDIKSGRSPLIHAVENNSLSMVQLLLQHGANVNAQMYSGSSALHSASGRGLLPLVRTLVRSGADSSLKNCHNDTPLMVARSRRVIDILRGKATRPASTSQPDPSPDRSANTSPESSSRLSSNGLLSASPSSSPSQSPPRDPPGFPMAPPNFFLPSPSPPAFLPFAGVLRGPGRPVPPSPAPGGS

ZNF114 (Homo sapiens) = ZNF114 (Homo sapiens) (UniProt Q8NC26)
RNF138 (Homo sapiens) = target: T2, RNF138 (Homo sapiens) (UniProt Q8WVD3)
T2 sequence (looked up, limits assumed): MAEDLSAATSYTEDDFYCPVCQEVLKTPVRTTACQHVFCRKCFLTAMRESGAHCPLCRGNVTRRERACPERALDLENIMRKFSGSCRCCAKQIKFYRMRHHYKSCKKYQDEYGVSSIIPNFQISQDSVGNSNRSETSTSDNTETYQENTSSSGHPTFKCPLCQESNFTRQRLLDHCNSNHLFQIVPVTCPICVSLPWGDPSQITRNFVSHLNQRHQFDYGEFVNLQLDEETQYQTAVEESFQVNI

E2F3 (Homo sapiens) = E2F3 (Homo sapiens) (UniProt O00716)
ZNF416 (Homo sapiens) = ZNF416 (Homo sapiens) (UniProt Q9BWM5)
HOXA5 (Homo sapiens) = HOXA5 (Homo sapiens) (UniProt P20719)
PPARG (Homo sapiens) = PPARG (Homo sapiens) (UniProt P37231)
SCAPER (Homo sapiens) = target: T3, SCAPER (Homo sapiens) (UniProt Q9BY12)
T3 sequence (looked up, limits assumed): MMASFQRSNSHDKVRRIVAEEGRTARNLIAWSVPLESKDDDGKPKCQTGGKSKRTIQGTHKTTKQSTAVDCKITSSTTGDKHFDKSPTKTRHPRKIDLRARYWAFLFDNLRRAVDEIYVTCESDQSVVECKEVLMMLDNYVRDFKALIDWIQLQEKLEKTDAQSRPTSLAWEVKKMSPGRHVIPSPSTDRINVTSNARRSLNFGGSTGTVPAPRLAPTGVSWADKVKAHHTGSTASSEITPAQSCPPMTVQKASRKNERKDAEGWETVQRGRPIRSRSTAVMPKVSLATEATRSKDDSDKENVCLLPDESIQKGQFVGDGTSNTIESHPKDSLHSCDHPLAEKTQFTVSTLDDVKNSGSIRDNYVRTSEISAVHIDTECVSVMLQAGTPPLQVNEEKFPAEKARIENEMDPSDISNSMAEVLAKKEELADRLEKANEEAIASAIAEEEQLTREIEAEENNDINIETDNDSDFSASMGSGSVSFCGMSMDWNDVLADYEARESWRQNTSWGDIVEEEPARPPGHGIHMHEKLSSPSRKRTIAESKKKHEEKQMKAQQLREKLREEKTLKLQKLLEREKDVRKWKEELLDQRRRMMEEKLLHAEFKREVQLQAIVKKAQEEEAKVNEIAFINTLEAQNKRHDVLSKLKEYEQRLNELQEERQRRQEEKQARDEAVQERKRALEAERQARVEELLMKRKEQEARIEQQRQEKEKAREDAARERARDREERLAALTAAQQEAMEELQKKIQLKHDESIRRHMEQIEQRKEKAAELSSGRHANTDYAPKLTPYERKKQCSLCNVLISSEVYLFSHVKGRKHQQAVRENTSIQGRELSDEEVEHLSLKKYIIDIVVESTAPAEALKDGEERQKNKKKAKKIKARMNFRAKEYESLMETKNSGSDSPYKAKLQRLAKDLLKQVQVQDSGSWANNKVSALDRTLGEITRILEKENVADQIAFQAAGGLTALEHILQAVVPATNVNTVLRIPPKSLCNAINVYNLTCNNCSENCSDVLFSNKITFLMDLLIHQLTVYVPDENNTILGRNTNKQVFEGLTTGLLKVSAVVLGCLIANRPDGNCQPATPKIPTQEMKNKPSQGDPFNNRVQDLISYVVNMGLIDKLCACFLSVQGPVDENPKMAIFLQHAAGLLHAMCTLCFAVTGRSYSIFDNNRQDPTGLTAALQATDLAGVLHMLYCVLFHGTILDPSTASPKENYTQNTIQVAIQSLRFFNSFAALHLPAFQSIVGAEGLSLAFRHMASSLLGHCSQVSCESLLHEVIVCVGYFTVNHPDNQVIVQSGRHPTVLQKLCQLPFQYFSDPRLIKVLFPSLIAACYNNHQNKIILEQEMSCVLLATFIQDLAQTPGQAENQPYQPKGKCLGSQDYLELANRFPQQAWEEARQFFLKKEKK

GATA4 (Homo sapiens) = GATA4 (Homo sapiens) (UniProt P43694)
ZCCHC7 (Homo sapiens) = target: T4, ZCCHC7 (Homo sapiens) (UniProt Q8N3Z6)
T4 sequence (looked up, limits assumed): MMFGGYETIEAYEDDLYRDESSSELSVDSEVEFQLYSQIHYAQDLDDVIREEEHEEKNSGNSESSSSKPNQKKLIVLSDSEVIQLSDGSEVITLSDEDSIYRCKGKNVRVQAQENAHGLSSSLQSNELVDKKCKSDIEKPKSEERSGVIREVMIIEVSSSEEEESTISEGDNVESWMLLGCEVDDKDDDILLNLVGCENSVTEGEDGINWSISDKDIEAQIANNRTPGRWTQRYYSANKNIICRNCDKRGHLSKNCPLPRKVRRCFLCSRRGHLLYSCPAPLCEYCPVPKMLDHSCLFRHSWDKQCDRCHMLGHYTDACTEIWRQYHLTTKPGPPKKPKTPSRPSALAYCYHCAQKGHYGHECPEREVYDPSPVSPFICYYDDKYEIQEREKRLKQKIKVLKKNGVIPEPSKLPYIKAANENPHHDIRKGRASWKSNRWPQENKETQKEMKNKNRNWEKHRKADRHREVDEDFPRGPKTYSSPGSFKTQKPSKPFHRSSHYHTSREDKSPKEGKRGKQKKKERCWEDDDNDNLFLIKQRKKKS

RXRA (Homo sapiens) = RXRA (Homo sapiens) (UniProt P19793)

Measured: binding result

AGGCCGCTTTAGGCCGCCCCTATAGTGAGTGCTATTA (double strand) [M304]
binds: BCL3 (Homo sapiens) | ZNF114 (Homo sapiens) | RNF138 (Homo sapiens) | E2F3 (Homo sapiens) | ZNF416 (Homo sapiens) | HOXA5 (Homo sapiens) | PPARG (Homo sapiens) | SCAPER (Homo sapiens) | GATA4 (Homo sapiens) | ZCCHC7 (Homo sapiens) | RXRA (Homo sapiens)

CATCCGGGAAACATCCGGGCCCTATAGTGAGTGCTATTA (double strand) [M322]
binds: BCL3 (Homo sapiens) | ZNF114 (Homo sapiens) | E2F3 (Homo sapiens) | ZNF416 (Homo sapiens) | HOXA5 (Homo sapiens) | PPARG (Homo sapiens) | SCAPER (Homo sapiens) | GATA4 (Homo sapiens) | ZCCHC7 (Homo sapiens) | RXRA (Homo sapiens)

CGGATGTAAACGGATGTCCCTATAGTGAGTGCTATTA (double strand) [M27]
binds: BCL3 (Homo sapiens) | ZNF114 (Homo sapiens) | RNF138 (Homo sapiens) | E2F3 (Homo sapiens) | ZNF416 (Homo sapiens) | HOXA5 (Homo sapiens) | PPARG (Homo sapiens) | SCAPER (Homo sapiens) | GATA4 (Homo sapiens) | ZCCHC7 (Homo sapiens) | RXRA (Homo sapiens)

TGTTCCGATTTTGTTCCGACCCTATAGTGAGTGCTATTA (double strand) [M447]
binds: BCL3 (Homo sapiens) | ZNF114 (Homo sapiens) | RNF138 (Homo sapiens) | E2F3 (Homo sapiens) | ZNF416 (Homo sapiens) | HOXA5 (Homo sapiens) | PPARG (Homo sapiens) | SCAPER (Homo sapiens) | GATA4 (Homo sapiens) | ZCCHC7 (Homo sapiens) | RXRA (Homo sapiens)

CTGCCGCAAACTGCCGCCCCTATAGTGAGTGCTATTA (double strand) [M95]
binds: BCL3 (Homo sapiens) | ZNF114 (Homo sapiens) | RNF138 (Homo sapiens) | E2F3 (Homo sapiens) | ZNF416 (Homo sapiens) | HOXA5 (Homo sapiens) | PPARG (Homo sapiens) | SCAPER (Homo sapiens) | GATA4 (Homo sapiens) | ZCCHC7 (Homo sapiens) | RXRA (Homo sapiens)

CCGGAGCAAACCGGAGCCCCTATAGTGAGTGCTATTA (double strand) [M301]
binds: BCL3 (Homo sapiens) | ZNF114 (Homo sapiens) | RNF138 (Homo sapiens) | E2F3 (Homo sapiens) | ZNF416 (Homo sapiens) | HOXA5 (Homo sapiens) | PPARG (Homo sapiens) | SCAPER (Homo sapiens) | GATA4 (Homo sapiens) | ZCCHC7 (Homo sapiens) | RXRA (Homo sapiens)

CGCTTCCAAACGCTTCCCCCTATAGTGAGTGCTATTA (double strand) [M319]
binds: BCL3 (Homo sapiens) | ZNF114 (Homo sapiens) | RNF138 (Homo sapiens) | E2F3 (Homo sapiens) | ZNF416 (Homo sapiens) | HOXA5 (Homo sapiens) | PPARG (Homo sapiens) | SCAPER (Homo sapiens) | GATA4 (Homo sapiens) | ZCCHC7 (Homo sapiens) | RXRA (Homo sapiens)

CCGGAACTTTCCGGAACCCCTATAGTGAGTGCTATTA (double strand) [M318]
binds: BCL3 (Homo sapiens) | ZNF114 (Homo sapiens) | RNF138 (Homo sapiens) | E2F3 (Homo sapiens) | ZNF416 (Homo sapiens) | HOXA5 (Homo sapiens) | PPARG (Homo sapiens) | SCAPER (Homo sapiens) | GATA4 (Homo sapiens) | ZCCHC7 (Homo sapiens) | RXRA (Homo sapiens)

ACGTGGGTTTACGTGGGCCCTATAGTGAGTGCTATTA (double strand) [M327]
binds: BCL3 (Homo sapiens) | ZNF114 (Homo sapiens) | RNF138 (Homo sapiens) | E2F3 (Homo sapiens) | ZNF416 (Homo sapiens) | HOXA5 (Homo sapiens) | PPARG (Homo sapiens) | SCAPER (Homo sapiens) | GATA4 (Homo sapiens) | ZCCHC7 (Homo sapiens) | RXRA (Homo sapiens)

GTCACGCCCAAAGTCACGCCCCCCTATAGTGAGTGCTATTA (double strand) [M213]
binds: ZNF114 (Homo sapiens) | RNF138 (Homo sapiens) | E2F3 (Homo sapiens) | ZNF416 (Homo sapiens) | HOXA5 (Homo sapiens) | SCAPER (Homo sapiens) | GATA4 (Homo sapiens) | ZCCHC7 (Homo sapiens) | RXRA (Homo sapiens)

ACGTCAGAAAACGTCAGCCCTATAGTGAGTGCTATTA (double strand) [M303]
binds: BCL3 (Homo sapiens) | ZNF114 (Homo sapiens) | RNF138 (Homo sapiens) | E2F3 (Homo sapiens) | ZNF416 (Homo sapiens) | HOXA5 (Homo sapiens) | PPARG (Homo sapiens) | SCAPER (Homo sapiens) | GATA4 (Homo sapiens) | ZCCHC7 (Homo sapiens) | RXRA (Homo sapiens)

CGCTGCCAAACGCTGCCCCCTATAGTGAGTGCTATTA (double strand) [M305]
binds: BCL3 (Homo sapiens) | ZNF114 (Homo sapiens) | RNF138 (Homo sapiens) | E2F3 (Homo sapiens) | ZNF416 (Homo sapiens) | HOXA5 (Homo sapiens) | PPARG (Homo sapiens) | SCAPER (Homo sapiens) | GATA4 (Homo sapiens) | ZCCHC7 (Homo sapiens) | RXRA (Homo sapiens)

Construct, isoform or probe ends are uncertain for at least one entry. For part of these data: Tags and fusion partners may be left off the protein sequences shown.
